Test results from paper doi:10.1101/2020.05.12.090472.
Results are given in words; binding and its absence hold for the method and conditions named. In cells and extracts the contact can be indirect. Some binding calls cover weakened binding; strength is not graded here.

Protein sequences, listed by entry. Tags and fused reporters are not part of them.
UniProt P61809: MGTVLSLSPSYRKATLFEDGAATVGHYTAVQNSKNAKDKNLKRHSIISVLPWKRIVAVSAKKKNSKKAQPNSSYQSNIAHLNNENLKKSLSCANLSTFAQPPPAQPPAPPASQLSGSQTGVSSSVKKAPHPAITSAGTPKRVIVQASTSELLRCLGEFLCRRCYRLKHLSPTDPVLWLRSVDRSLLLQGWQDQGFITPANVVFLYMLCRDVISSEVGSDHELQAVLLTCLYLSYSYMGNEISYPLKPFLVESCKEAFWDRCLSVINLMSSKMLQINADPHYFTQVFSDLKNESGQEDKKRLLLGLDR

How the values were obtained:
[1] = target: T1, biotin-conjugated Cdk5i peptide; test: pull-down
T1 sequence (peptide, biotin at the N-terminus): ARAFGIPVRCYS

[2] = target: T2, biotin-conjugated scrambled peptide; test: pull-down
T2 sequence (peptide, biotin at the N-terminus): AFRSPCARIGYV

binding [1]	binding [2]	Substance
no binding	no binding	Cdk2 of wild-type mouse brain lysate (from UniProt P97377 1-346) (enzyme)
binds	no binding	Cdk5 of wild-type mouse brain lysate (from UniProt P49615 1-292) (enzyme)
	binds weakly	Recombinant Cdk5/p25 complex (human Cdk5 and p25 with N-terminal GST-tags) (from UniProt Q00535 1-292; Q15078 99-307)
binds	no binding	p35 of wild-type mouse brain lysate (from UniProt P61809 1-307)
